Laboratory results: PubChem BioAssay AID1259254 (NCATS, 2017)
In all, the deposit lists about 59,000 reagents; shown is a random part of them. In the full data, about 1,550 (2.6%) got an active call. 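G2 share is only a proxy for re-replication; each gene was hit by three separate siRNAs, and active genes were retested.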 Raw values vary from plate to plate and are shown uncorrected. Reagents against one gene are numbered here. Not stated in the record: the amount of reagent.

Aim: 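Gene knock-downs that lead to re-replication, shown by excess G2 DNA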 (primary screen)
Cells: human HCT116 colorectal cancer cells
Reagents: single siRNA against human genes
Time to read-out: 3 days
Measured: 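Imaged Hoechst DNA stain sorts each cell into a cycle phase by DNA amount; per plate, G2 fraction set to 0% for non-targeting and 100% for GMNN siRNA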
Reading the numbers: G2 robust z-score and G2 cells, % of GMNN control: higher = more G2 cells, more excess DNA replication; raw share of cells in G2: higher = larger share of cells with G2 DNA content
Active means: 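Active siRNAs have a G2 robust z of 5 or more median absolute deviations over the median, which in these data means about 38% or higher of GMNN control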

| gene symbol | siRNA no. | G2 robust z-score | G2 cells, % of GMNN control | raw share of cells in G2 (%) | call |
| --- | --- | --- | --- | --- | --- |
| H1-1 (H1.1 linker histone, cluster member) | 1 | -0.544 | -0.863 | 3.18 | inactive |
| H1-1 (H1.1 linker histone, cluster member) | 2 | -0.84 | -2.94 | 3.92 | inactive |
| H1-1 (H1.1 linker histone, cluster member) | 3 | 1.18 | 11.3 | 8.21 | inactive |
| LOC647983 (retired record) | 1 | -0.955 | -3.75 | 2.36 | inactive |
| LOC647983 (retired record) | 2 | 4.06 | 31.6 | 14.9 | inactive |
| LOC647983 (retired record) | 3 | -1 | -4.08 | 1.75 | inactive |
| ANGPT4 (angiopoietin 4) | 1 | -1.06 | -4.52 | 2.57 | inactive |
| ANGPT4 (angiopoietin 4) | 2 | -0.878 | -3.21 | 4.5 | inactive |
| ANGPT4 (angiopoietin 4) | 3 | -0.886 | -3.27 | 2.55 | inactive |
| PREX1 | 1 | -0.572 | -1.05 | 3.93 | inactive |
| PREX1 | 2 | -0.218 | 1.44 | 5.15 | inactive |
| PREX1 | 3 | -0.829 | -2.86 | 2.12 | inactive |
| PCCA (propionyl-CoA carboxylase subunit alpha) | 1 | -0.656 | -1.65 | 4.08 | inactive |
| PCCA (propionyl-CoA carboxylase subunit alpha) | 2 | -0.68 | -1.81 | 4.52 | inactive |
| PCCA (propionyl-CoA carboxylase subunit alpha) | 3 | -0.457 | -0.25 | 3.11 | inactive |
| OR9A2 (olfactory receptor family 9 subfamily A member 2) | 1 | 1.21 | 11.5 | 8.51 | inactive |
| OR9A2 (olfactory receptor family 9 subfamily A member 2) | 2 | -0.427 | -0.0343 | 3.09 | inactive |
| OR9A2 (olfactory receptor family 9 subfamily A member 2) | 3 | -0.332 | 0.632 | 2.81 | inactive |
| THSD7A (thrombospondin type 1 domain containing 7A) | 1 | -0.275 | 1.03 | 3.95 | inactive |
| THSD7A (thrombospondin type 1 domain containing 7A) | 2 | 2.24 | 18.7 | 9.55 | inactive |
| THSD7A (thrombospondin type 1 domain containing 7A) | 3 | -0.199 | 1.56 | 3.69 | inactive |
| CEP85L (centrosomal protein 85L) | 1 | 0.0102 | 3.04 | 4.81 | inactive |
| CEP85L (centrosomal protein 85L) | 2 | -0.968 | -3.84 | 1.73 | inactive |
| CEP85L (centrosomal protein 85L) | 3 | 0.475 | 6.31 | 7.34 | inactive |
| SEC24C (SEC24 homolog C, COPII component) | 1 | -0.076 | 2.43 | 5.74 | inactive |
| SEC24C (SEC24 homolog C, COPII component) | 2 | 1.13 | 10.9 | 9.33 | inactive |
| SEC24C (SEC24 homolog C, COPII component) | 3 | 0.343 | 5.38 | 5.04 | inactive |

The list goes on (9 carried over from the part before).
| gene symbol | siRNA no. | G2 robust z-score | G2 cells, % of GMNN control | raw share of cells in G2 (%) | call |
| --- | --- | --- | --- | --- | --- |
| THSD7A (thrombospondin type 1 domain containing 7A) | 1 | -0.275 | 1.03 | 3.95 | inactive |
| THSD7A (thrombospondin type 1 domain containing 7A) | 2 | 2.24 | 18.7 | 9.55 | inactive |
| THSD7A (thrombospondin type 1 domain containing 7A) | 3 | -0.199 | 1.56 | 3.69 | inactive |
| CEP85L (centrosomal protein 85L) | 1 | 0.0102 | 3.04 | 4.81 | inactive |
| CEP85L (centrosomal protein 85L) | 2 | -0.968 | -3.84 | 1.73 | inactive |
| CEP85L (centrosomal protein 85L) | 3 | 0.475 | 6.31 | 7.34 | inactive |
| SEC24C (SEC24 homolog C, COPII component) | 1 | -0.076 | 2.43 | 5.74 | inactive |
| SEC24C (SEC24 homolog C, COPII component) | 2 | 1.13 | 10.9 | 9.33 | inactive |
| SEC24C (SEC24 homolog C, COPII component) | 3 | 0.343 | 5.38 | 5.04 | inactive |
| YWHAG | 1 | -0.0259 | 2.79 | 5.3 | inactive |
| YWHAG | 2 | 1.22 | 11.6 | 8.29 | inactive |
| YWHAG | 3 | 1.96 | 16.7 | 12.7 | inactive |
| HIP1 (huntingtin interacting protein 1) | 1 | -0.609 | -1.32 | 4.68 | inactive |
| HIP1 (huntingtin interacting protein 1) | 2 | -0.584 | -1.14 | 3.67 | inactive |
| HIP1 (huntingtin interacting protein 1) | 3 | -0.254 | 1.18 | 3.99 | inactive |
| COL8A1 (collagen type VIII alpha 1 chain) | 1 | -0.385 | 0.26 | 5.05 | inactive |
| COL8A1 (collagen type VIII alpha 1 chain) | 2 | 0.508 | 6.54 | 7.38 | inactive |
| COL8A1 (collagen type VIII alpha 1 chain) | 3 | 0.167 | 4.14 | 5.52 | inactive |
| BOLL (boule RNA binding protein) | 1 | 0.826 | 8.78 | 7.45 | inactive |
| BOLL (boule RNA binding protein) | 2 | -0.796 | -2.63 | 3.27 | inactive |
| BOLL (boule RNA binding protein) | 3 | 0.168 | 4.15 | 7.36 | inactive |
| IARS2 (isoleucyl-tRNA synthetase 2, mitochondrial) | 1 | 0.102 | 3.68 | 8.04 | inactive |
| IARS2 (isoleucyl-tRNA synthetase 2, mitochondrial) | 2 | -0.411 | 0.0764 | 4.47 | inactive |
| IARS2 (isoleucyl-tRNA synthetase 2, mitochondrial) | 3 | 0.182 | 4.25 | 6.11 | inactive |
| VPS33B (VPS33B late endosome and lysosome associated) | 1 | 0.835 | 8.84 | 7.74 | inactive |
| VPS33B (VPS33B late endosome and lysosome associated) | 2 | 0.0312 | 3.19 | 5.32 | inactive |
| VPS33B (VPS33B late endosome and lysosome associated) | 3 | -0.368 | 0.379 | 3.43 | inactive |
| RPP14 (ribonuclease P/MRP subunit p14) | 1 | 3.25 | 25.9 | 15.1 | inactive |
| RPP14 (ribonuclease P/MRP subunit p14) | 2 | 1.93 | 16.5 | 11 | inactive |
| RPP14 (ribonuclease P/MRP subunit p14) | 3 | 1.24 | 11.7 | 7.55 | inactive |
| PRPF31 (pre-mRNA processing factor 31) | 1 | -1.23 | -5.69 | 2.13 | inactive |
| PRPF31 (pre-mRNA processing factor 31) | 2 | 3.83 | 29.9 | 19.7 | inactive |
| PRPF31 (pre-mRNA processing factor 31) | 3 | 1.98 | 16.9 | 9.79 | inactive |
| DCUN1D3 (defective in cullin neddylation 1 domain containing 3) | 1 | -0.387 | 0.245 | 4.19 | inactive |
| DCUN1D3 (defective in cullin neddylation 1 domain containing 3) | 2 | 0.443 | 6.08 | 5.14 | inactive |
| DCUN1D3 (defective in cullin neddylation 1 domain containing 3) | 3 | -0.31 | 0.784 | 2.05 | inactive |
| PER3 (period circadian regulator 3) | 1 | 0.84 | 8.88 | 9.07 | inactive |
| PER3 (period circadian regulator 3) | 2 | 0.474 | 6.3 | 6.39 | inactive |
| PER3 (period circadian regulator 3) | 3 | -0.555 | -0.938 | 3.02 | inactive |
| CMTM5 (CKLF like MARVEL transmembrane domain containing 5) | 1 | 0.336 | 5.33 | 3.38 | inactive |
| CMTM5 (CKLF like MARVEL transmembrane domain containing 5) | 2 | 0.829 | 8.8 | 7.62 | inactive |
| CMTM5 (CKLF like MARVEL transmembrane domain containing 5) | 3 | -0.839 | -2.93 | 2.46 | inactive |
| ITGA8 (integrin subunit alpha 8) | 1 | 1.17 | 11.2 | 9.2 | inactive |
| ITGA8 (integrin subunit alpha 8) | 2 | -0.82 | -2.8 | 3.26 | inactive |
| ITGA8 (integrin subunit alpha 8) | 3 | -0.202 | 1.54 | 5.26 | inactive |
| AGO1 (argonaute RISC component 1) | 1 | -0.456 | -0.243 | 3.91 | inactive |
| AGO1 (argonaute RISC component 1) | 2 | 0.0569 | 3.37 | 5.31 | inactive |
| AGO1 (argonaute RISC component 1) | 3 | 7.52 | 55.9 | 31.5 | active |
| SAXO4 (stabilizer of axonemal microtubules 4) | 1 | -0.0826 | 2.39 | 3.96 | inactive |
| SAXO4 (stabilizer of axonemal microtubules 4) | 2 | -0.344 | 0.546 | 3.78 | inactive |
| SAXO4 (stabilizer of axonemal microtubules 4) | 3 | 1.04 | 10.3 | 6.66 | inactive |
